Experimental data: PubChem BioAssay AID652259 (Drosophila RNAi Screening Center, 2013)

Purpose: 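Knock-downs that push a Wingless-driven reporter up or down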 (primary screen)
Cells: Drosophila clone 8 imaginal disc epithelial cells
Knock-down reagent: long dsRNA against Drosophila genes
Challenge: pathway stimulated by co-transfected Wingless expression plasmid
Read-out: 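Dual luciferase reads per well after Wingless plasmid stimulation: reporter firefly light and Renilla control light; activity is firefly divided by Renilla, a ratio not deposited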
Direction: firefly reporter light: higher = more Wg reporter light, before normalisation; Renilla control light: higher = more transfected or surviving cells
Rule for the call: 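a knock-down is a candidate when at least two out of four statistical tests show it departing from its plate mean; one test alone signals a weak candidate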
Meaning of the calls: active = candidate regulator (raises or lowers reporter); inactive = not a candidate
In all, the deposit lists about 22,000 reagents; this is an unselected part of those with a known target gene and a result. In the full data, 233 (1.1%) were called active. 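Light values are raw, unnormalised plate reads; the ratio scores behind the reporter calls were not deposited.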 Entries without a mark were called inactive. Reagents against one gene are numbered here. Not given: the amount of reagent, the time to read-out, the dose of the treatment.

gene knocked down,reagent,"reporter change call, replicate 1","firefly reporter light, replicate 1","firefly reporter light, replicate 2","Renilla control light, replicate 1","Renilla control light, replicate 2"
CG11178,1,,2851,7746,1020,2429
b,1,,3629,6848,1467,3883
kipf,1,,23552,,5304,
kipf,2,,6.15e5,6.51e5,1.70e5,2.19e5
CG10428,1,,10093,,2816,
r2d2,1,,1666,4768,855,3113
CG5021,1,,1868,7856,1195,2944
Ugt49B2,1,,41569,,7984,
Mnr,1,,16005,,10518,
Mnr,2,,17612,7.32e5,11584,3.90e5
Mnr,3,,3.34e5,3.83e5,1.70e5,47901
CG30286,1,,2776,6506,1227,2304
orb,1,,1760,4180,243,449
wupA,1,,24316,,16954,
wupA,2,,6.46e5,6.60e5,2.36e5,1.30e5
ox,1,,6070,,2328,
ocn,1,,7564,,2880,
klg,1,,2812,,1606,
klg,2,,28352,,18539,
yuri,1,,13260,,7856,
yuri,2,Wg reporter activity raised,27660,,7433,
yuri,3,,2834,4908,1085,2602
yuri,4,,10884,,3081,
Orc1,1,,2848,,432,
CG31898,1,,14948,,7690,
CG7115,1,,2505,6442,1009,3394
GlcAT-P,1,,5654,,2874,
GlcAT-P,2,,6016,,1716,
CG32669,1,,2432,,763,
SCAP,1,,2333,4849,722,2384
SCAP,2,,3245,8464,1184,3239
CG34269,1,,2458,,1288,
Polr3H,1,,6552,,3369,
CG8541,1,,1260,8891,1096,3635
CG3744,1,,19049,,15224,
FAM21,1,,14748,,4467,
slo,1,,6498,,3173,
slo,2,,2690,4695,1132,1642
slo,3,,3.61e5,3.83e5,1.45e5,1.40e5
CG42699,1,,1635,4065,756,1595
CG42699,2,,21410,,11666,
CG32104,1,,8541,,3069,
CG32104,2,,9908,,3744,
CARPA,1,,23379,,13077,
CARPA,2,,8.16e5,7.50e5,3.49e5,3.18e5
Svil,1,,3985,,1616,
Svil,2,,15335,,3468,
Svil,3,,7512,,2848,
Svil,4,Wg reporter activity raised,6172,,1126,
Svil,5,,4183,,2466,
DptB,1,,13160,,3293,
CG30334,1,,19243,,16083,
Sec23,1,,6356,,2848,
CG10417,1,,15365,,4347,
CG31404,1,,15331,,2668,
CG14346,1,,2628,8904,1132,3084
CG4558,1,,2753,5296,1008,2072
CG13698,1,,3782,,1513,
scaf,1,,6419,,2501,
CG2765,1,,12756,,3685,
Cad89D,1,,19539,,4520,
Jon65Aiii,1,,4343,,2384,
CG33159,1,,6227,,844,
msd5,1,,4016,,1921,
Dyb,1,,13649,,4611,
Dyb,2,,8.86e5,8.75e5,4.18e5,5.06e5
Pdh,1,,2816,,1465,
CG13722,1,,1848,9667,700,3085
CG13722,2,,9.22e5,7.49e5,9.69e5,4.63e5
CtsF,1,,2352,,1539,
CtsF,2,,4233,,989,
CtsF,3,,8376,,1338,
CG34238,1,,3328,,1220,

Targets above whose gene name starts with W or w (2):
gene knocked down,reagent,"reporter change call, replicate 1","firefly reporter light, replicate 1","firefly reporter light, replicate 2","Renilla control light, replicate 1","Renilla control light, replicate 2"
wupA,1,,24316,,16954,
wupA,2,,6.46e5,6.60e5,2.36e5,1.30e5
